Source: PubChem BioAssay AID2685 (National Center for Advancing Translational Sciences (NCATS), 2010)
The list shows a part of the results. Shown are side measurements of this screen, not its main read-out; they come without a call. The list favours compounds with an active or inconclusive main result. Words in brackets tell the shape of the fitted curve; partial curves, single points and poor fits give uncertain potencies.

Assay: qHTS Assay for Lipid Storage Modulators in Drosophila S3 Cells;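 for cell number change: cells counted by Cell Tracker Red CMTPX staining in the red channel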
Settings: BODIPY lipid droplet fluorescence, 18-24 h; for cell number change: measured here: cell count max response, cells fed with added oleic acid
Summary of the method: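 Laser-scanning cytometry quantifies lipid droplet accumulation (500–530 nm total intensity; droplet/cell object ratio) in oleic acid-fed (400 uM added) Drosophila S3 cells treated with a concentration series. 20 uM Triacsin C defined 100% inhibition.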

[1] = measured here: lipid fluorescence (Fed channel) AC50, cells fed with added oleic acid
[2] = measured here: cell number channel AC50, cells fed with added oleic acid

SMILES	cell number change [%]	AC50 [1]	AC50 [2]
CC(CCc1ccccc1)NC(=O)CSc1ccccc1 (centres undefined)	-6.51	3.26 µM [rising, single point]	
Cc1cnc(C(=O)OCC(=O)Nc2cc(-c3cc(C)c(C)cc3C)nn2-c2ccccc2)cn1	38.2	3.66 µM [rising, single point]	9.2 µM [rising, partial curve]
Cn1nccc1C(=O)N1CCN(C23CC4CC(CC(C4)C2)C3)CC1	9.68	0.092 µM [rising, full curve, poor fit]	6.51 µM [rising, single point]
O=C(CN=C1NC(=O)C(c2ccccc2)(c2ccccc2)N1)NCc1ccc(F)cc1	-3.99	0.00411 µM [falling, full curve, poor fit]	
CC(=O)c1c(C)[nH]c(C(=O)OCC(=O)NCc2ccc(Cl)cc2)c1C	37.4	0.164 µM [rising, full curve, poor fit]	0.146 µM [rising, full curve, poor fit]
COCCCN(C(=O)Cc1ccc(Cl)c(Cl)c1)c1c(N)n(Cc2ccccc2)c(=O)[nH]c1=O	2.21	2.06 µM [falling, partial curve]	
C/C(=N\NC(=O)c1nnn(-c2nonc2N)c1CN1CCOCC1)c1ccc(CC(C)C)cc1	-6.11	16.4 µM [falling, single point]	
Cc1ccccc1Nc1nnc(SCC(=O)NC(=O)NCc2ccco2)s1	22.2		2.59 µM [rising, full curve, poor fit]
O=C(CN1C(=O)CSc2ccc(S(=O)(=O)N3CCOCC3)cc21)NCc1cccnc1		0.13 µM [rising, full curve, poor fit]	
COC(=O)C1=C(CSc2nccn2C)NC(=O)NC1c1cc(C)ccc1C (centres undefined)	73.6		2.31 µM [rising, full curve, poor fit]
O=C(CC(=O)c1c(F)cccc1Cl)c1ccccc1O	-63.2	29.1 µM [falling, single point]	29.1 µM [falling, single point]
COc1ccc(NC(=O)CSc2nccn2Cc2ccccc2)c(OC)c1	31.6		5.17 µM [rising, full curve, poor fit]
O=S(=O)(Nc1cccc(-c2cn3cccnc3n2)c1)c1ccc(Cl)cc1	11.8	29.1 µM [falling, single point]	
Cc1ccc(C(=O)Nc2ccccc2-c2ccccc2)o1	56.3	29.1 µM [rising, single point]	0.82 µM [rising, full curve]
COC(=O)C1=C(C)N(C)C(=O)NC1c1ccccc1 (centres undefined)		6.51 µM [falling, single point]	
CN(CCNC(=O)c1cc2c(=O)n(C)c3ccccc3c2n1C)Cc1ccccc1	2.9		
CCOC(=O)CNC(=O)COc1ccc(Cl)cc1Br	13		
COc1ccc(CNC(C)C2COc3ccccc3O2)c(OC)c1 (centres undefined)	-30.3	0.13 µM [falling, full curve, poor fit]	20.6 µM [falling, single point]
CCn1c(SCC(=O)Nc2ccc(OC)c(OC)c2)nnc1-c1cnccn1	26.6		

Quoted from the listing.
Entry for Cc1ccccc1Nc1nnc(SCC(=O)NC(=O)NCc2ccco2)s1 under AC50 [2]: 2.59 µM [rising, full curve, poor fit]
Entry for COC(=O)C1=C(C)N(C)C(=O)NC1c1ccccc1 (centres undefined) under AC50 [1]: 6.51 µM [falling, single point]

The listing continues:

SMILES	cell number change [%]	AC50 [1]	AC50 [2]
COc1ccc2c(c1)c(N=NC(N)=S)c(O)n2CC(=O)c1ccccc1	-37.1	14.6 µM [falling, single point]	13 µM [falling, partial curve, poor fit]
O=C(Oc1ccc(OC(=O)N2CCCCC2)cc1)c1ccccc1	-36.9	20.6 µM [falling, single point]	
CCC(=O)Nc1ccc(C(=O)Cn2ncc(Cl)c(Cl)c2=O)cc1	0.793	6.51 µM [falling, single point]	
O=C1C=C(c2ccnc3cc(Cl)ccc23)C[C@@H](c2ccc3c(c2)OCO3)C1	-15.3		0.146 µM [falling, single point]
Cc1cc(C)c(NC(=O)CN(C)C(=O)CCC(=O)c2ccc(C)s2)c(C)c1	13	5.8 µM [rising, full curve]	
c1ccc(Cn2c(NCc3ccccn3)nc3ccccc32)cc1	-12.4	0.651 µM [rising, full curve, poor fit]	
CN1CCN(C(=O)C2CCN(c3ncc(C(F)(F)F)cc3Cl)CC2)CC1		29.1 µM [rising, single point]	
CCn1c2ccccc2c2cc(NC(C)=O)ccc21	15.6		
Cc1cc(C)nc(SCC(=O)Nc2ccc(S(=O)(=O)Nc3nccs3)cc2)n1		14.6 µM [rising, partial curve]	
Cc1ccc(N(Cc2ccccc2)C(=O)c2cccc(S(=O)(=O)N3CCOCC3)c2)cc1	55		8.2 µM [rising, partial curve]
CCOc1ccc(-c2ccc(/C=C3/C(=N)N4C(C)=CSC4=NC3=O)o2)c([N+](=O)[O-])c1	-6.25	29.1 µM [falling, single point]	
Nc1ncnc(SCc2c(F)cccc2Cl)n1	12.5	4.61 µM [falling, single point]	6.51 µM [falling, single point]
COc1cccc(C(=O)Nc2ccc3[nH]ncc3c2)c1	22.5	29.1 µM [rising, single point]	
Cc1cc(C)c2sc(NNC(=O)C3COc4ccccc4O3)nc2c1 (centres undefined)	-32.8	29.1 µM [falling, single point]	29.1 µM [falling, single point]
CC(=O)c1sc(NC(=O)c2ccccc2C)nc1C	37.8		
COc1ccc2nc(N(CCN(C)C)C(=O)c3ccc(C(=O)c4ccccc4)cc3)sc2c1	33.2	6.51 µM [rising, partial curve]	0.082 µM [rising, full curve, poor fit]
Cc1cc(N/C=C/C(=O)c2ccccc2)ccc1Br	-19.2		
Cc1cc(=O)[nH]c(NCc2ccc(Cl)cc2)n1	-33.4		0.164 µM [falling, full curve, poor fit]
